Measurements reported in PubChem BioAssay AID652272 (Drosophila RNAi Screening Center, 2013)
The screen tested about 21,000 reagents; shown is an unselected part of those with a known target gene and a result. Over the whole deposit, 503 (2.4%) got an active call. 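Raw plate light values, not normalised; calls rest on replicate z-scores that were not deposited; hits include reporter decreases as well as increases.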 Unmarked entries are inactive. The numbers tell different reagents against one gene apart. A plus sign joins genes that one reagent is predicted to hit. Not given: the amount of reagent, the time to read-out.

Aim: 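Genome-wide knock-down search for components of Hedgehog signalling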 (primary screen)
Cell system: Drosophila clone 8 (Cl8) cells
Reagents: long dsRNA against Drosophila genes
Measured: 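Firefly light from a Hedgehog-responsive ptc promoter reporter and Renilla reference light, both read on a plate reader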
Direction: firefly Hh reporter signal: higher = more ptc reporter light; Renilla reference signal: higher = more Renilla control light
Active means: 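Hit when the z-score averaged over two replicates is under -2 or over +3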
Meaning of the calls: active = hit: reporter lowered or raised; inactive = not a hit

| firefly Hh reporter signal, replicate 1 | firefly Hh reporter signal, replicate 2 | firefly Hh reporter signal, replicate 3 | Renilla reference signal, replicate 1 | Renilla reference signal, replicate 2 | target gene | reagent no. |
| --- | --- | --- | --- | --- | --- | --- |
| 58598 | 68316 | – | 2402 | 2754 | Dus4 (Dihydrouridine synthase 4) | 1 |
| 64839 | 77350 | – | 2949 | 2680 | Hexim (Hexamethylene bisacetamide inducible) | 1 |
| 93920 | 61707 | – | 3387 | 2597 | CG7924 | 1 |
| 52748 | 58360 | 72844 | 5763 | 5731 | Polr3H (RNA polymerase III subunit H) | 1 |
| 64418 | 5.91e5 | 55095 | 5729 | 35536 | CG33514 | 1 |
| 49336 | 56060 | – | 4736 | 3367 | CG33514 | 2 |
| 1.34e5 | 2.50e5 | – | 5127 | 11496 | CG17167 | 1 |
| 1.50e5 | 2.81e5 | – | 5089 | 13686 | CG17167 | 2 |
| 1.03e5 | 1.36e5 | – | 3312 | 4748 | Nepl20 (Neprilysin-like 20) | 1 |
| 75651 | 78874 | – | 3301 | 3356 | MME1 (Mitochondrial Magnesium Exporter 1) | 1 |
| 4.70e5 | 61766 | – | 23073 | 2532 | mask (multiple ankyrin repeats single KH domain) | 1 |
| 79344 | 43276 | – | 3616 | 2074 | mask (multiple ankyrin repeats single KH domain) | 2 |
| 78048 (active) | 38412 | – | 4148 | 2509 | mask (multiple ankyrin repeats single KH domain) | 3 |
| 1.22e5 | 53718 | – | 2715 | 5175 | CG42634 + CG42635 | 1 |
| 85061 | 66763 | – | 1661 | 5545 | CG3907 | 1 |
| 5.38e5 | 1.02e5 | – | 3768 | 3768 | Pvf2 (PDGF- and VEGF-related factor 2) | 1 |
| 1.54e5 | 69175 | – | 3879 | 6185 | Pvf2 (PDGF- and VEGF-related factor 2) | 2 |
| 73053 | 1.87e5 | – | 1913 | 6624 | Tsp3A (Tetraspanin 3A) | 1 |
| 1.40e5 | 1.26e5 | – | 3248 | 2938 | CG11122 | 1 |
| 1.18e5 | 60941 | – | 2474 | 5322 | CG13385 | 1 |
| 1.06e5 | 66592 | – | 2427 | 6437 | CG16772 | 1 |
| 1.21e5 | 5.47e5 | 1.04e5 | 4892 | 30146 | Nepl11 (Neprilysin-like 11) | 1 |
| 1.58e5 | 1.59e5 | – | 5961 | 6352 | Cyp4ac3 (Cytochrome P450 4ac3) | 1 |
| 75914 | 1.24e5 | – | 2597 | 3289 | Acp76A (Accessory gland protein 76A) | 1 |
| 76902 | 49608 | – | 2355 | 3669 | ida (imaginal discs arrested) | 1 |
| 1.20e5 | 1.04e5 | – | 3401 | 2605 | Acyp2 (Acylphosphatase 2) | 1 |

Continued, starting with the last 5 of the part before.
| firefly Hh reporter signal, replicate 1 | firefly Hh reporter signal, replicate 2 | firefly Hh reporter signal, replicate 3 | Renilla reference signal, replicate 1 | Renilla reference signal, replicate 2 | target gene | reagent no. |
| --- | --- | --- | --- | --- | --- | --- |
| 1.21e5 | 5.47e5 | 1.04e5 | 4892 | 30146 | Nepl11 (Neprilysin-like 11) | 1 |
| 1.58e5 | 1.59e5 | – | 5961 | 6352 | Cyp4ac3 (Cytochrome P450 4ac3) | 1 |
| 75914 | 1.24e5 | – | 2597 | 3289 | Acp76A (Accessory gland protein 76A) | 1 |
| 76902 | 49608 | – | 2355 | 3669 | ida (imaginal discs arrested) | 1 |
| 1.20e5 | 1.04e5 | – | 3401 | 2605 | Acyp2 (Acylphosphatase 2) | 1 |
| 82400 | 91634 | – | 3088 | 2720 | CG15864 | 1 |
| 64691 | 39157 | – | 2150 | 1232 | Elp2 (Elongator complex protein 2) | 1 |
| 1.01e5 | 75738 | – | 5272 | 3379 | CG10737 | 1 |
| 40643 | 53120 | 61312 | 3748 | 4297 | Apt1 (Acyl-protein thioesterase 1) | 1 |
| 86038 | 41851 | – | 3160 | 711 | Sil1 (Sil1 nucleotide exchange factor) | 1 |
| 1.23e5 | 78502 | – | 4688 | 3320 | Lapsyn (Leucine-rich repeat activity-regulated protein at synapses) | 1 |
| 1.03e5 | 48662 | – | 2969 | 5232 | CG6583 | 1 |
| 4.43e5 | 90860 | – | 23447 | 2566 | CG17190 | 1 |
| 1.00e5 | 82676 | – | 4000 | 2235 | side-IV + asRNA:CR17025 | 1 |
| 1.13e5 | 79190 | – | 3399 | 2146 | side-IV + asRNA:CR17025 | 2 |
| 68881 | 60118 | – | 1832 | 4877 | Nrk (Neurospecific receptor kinase) | 1 |
| 1.03e5 | 68162 | – | 2484 | 1478 | Ir21a + asRNA:CR43609 | 1 |
| 70557 | 46129 | – | 1540 | 3744 | CG31635 | 1 |
| 69152 | 70920 | – | 2076 | 5324 | CG31635 | 2 |
